± gives the standard deviation of the averaged measurements. This is one part of the list.

Amino acid sequences for entries named in this document (tags omitted). A change or cut given only in a name is not applied to a line headed by its entry.
UniProt Q9H1A4, whole entry: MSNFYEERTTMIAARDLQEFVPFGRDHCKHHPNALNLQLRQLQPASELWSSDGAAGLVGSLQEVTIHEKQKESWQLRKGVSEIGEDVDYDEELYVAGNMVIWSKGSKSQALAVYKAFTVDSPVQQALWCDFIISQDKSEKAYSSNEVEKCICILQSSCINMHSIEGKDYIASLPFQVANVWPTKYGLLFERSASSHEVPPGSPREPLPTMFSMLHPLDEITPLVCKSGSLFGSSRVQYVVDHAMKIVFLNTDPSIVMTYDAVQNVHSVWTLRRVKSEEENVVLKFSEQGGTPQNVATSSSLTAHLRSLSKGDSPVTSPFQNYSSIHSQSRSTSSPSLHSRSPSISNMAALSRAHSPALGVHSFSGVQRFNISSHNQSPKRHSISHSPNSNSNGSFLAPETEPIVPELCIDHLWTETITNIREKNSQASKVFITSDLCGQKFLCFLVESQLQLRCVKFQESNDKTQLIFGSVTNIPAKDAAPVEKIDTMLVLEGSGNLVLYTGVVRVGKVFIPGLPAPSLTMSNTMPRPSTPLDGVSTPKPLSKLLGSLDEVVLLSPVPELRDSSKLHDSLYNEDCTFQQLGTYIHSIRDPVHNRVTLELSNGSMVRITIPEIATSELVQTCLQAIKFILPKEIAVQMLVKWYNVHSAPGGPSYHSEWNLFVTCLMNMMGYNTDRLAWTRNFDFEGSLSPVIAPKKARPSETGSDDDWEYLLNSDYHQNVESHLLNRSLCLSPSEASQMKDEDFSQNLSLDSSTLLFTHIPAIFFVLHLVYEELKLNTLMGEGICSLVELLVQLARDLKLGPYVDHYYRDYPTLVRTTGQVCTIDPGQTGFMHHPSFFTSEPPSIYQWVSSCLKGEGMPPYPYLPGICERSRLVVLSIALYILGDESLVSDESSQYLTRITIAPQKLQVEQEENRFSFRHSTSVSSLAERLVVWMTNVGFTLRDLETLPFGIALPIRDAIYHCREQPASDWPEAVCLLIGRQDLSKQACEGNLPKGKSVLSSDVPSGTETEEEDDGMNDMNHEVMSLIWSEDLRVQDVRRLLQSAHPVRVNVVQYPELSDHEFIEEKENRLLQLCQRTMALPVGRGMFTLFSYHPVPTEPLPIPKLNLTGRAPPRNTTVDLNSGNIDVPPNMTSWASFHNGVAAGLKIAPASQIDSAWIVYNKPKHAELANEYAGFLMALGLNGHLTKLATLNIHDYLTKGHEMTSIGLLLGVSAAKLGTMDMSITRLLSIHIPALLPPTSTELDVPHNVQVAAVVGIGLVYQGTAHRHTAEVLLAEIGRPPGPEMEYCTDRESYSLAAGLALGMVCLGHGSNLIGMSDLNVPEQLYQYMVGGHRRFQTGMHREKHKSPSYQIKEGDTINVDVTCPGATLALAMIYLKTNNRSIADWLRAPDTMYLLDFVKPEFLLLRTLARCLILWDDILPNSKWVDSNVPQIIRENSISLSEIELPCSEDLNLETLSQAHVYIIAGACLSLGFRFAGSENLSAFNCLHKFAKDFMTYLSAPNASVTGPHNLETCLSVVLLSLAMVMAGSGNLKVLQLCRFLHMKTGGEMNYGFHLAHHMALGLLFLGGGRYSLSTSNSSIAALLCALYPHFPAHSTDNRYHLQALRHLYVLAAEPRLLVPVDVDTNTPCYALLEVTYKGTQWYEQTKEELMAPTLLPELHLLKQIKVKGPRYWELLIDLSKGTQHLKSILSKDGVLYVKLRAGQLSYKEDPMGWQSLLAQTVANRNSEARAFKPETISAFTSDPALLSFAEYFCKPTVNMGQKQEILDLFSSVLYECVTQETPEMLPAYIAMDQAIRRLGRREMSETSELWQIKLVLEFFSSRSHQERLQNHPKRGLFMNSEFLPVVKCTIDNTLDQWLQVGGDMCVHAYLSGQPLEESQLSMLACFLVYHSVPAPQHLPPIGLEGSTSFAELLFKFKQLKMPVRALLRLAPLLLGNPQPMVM
UniProt Q9HCG8: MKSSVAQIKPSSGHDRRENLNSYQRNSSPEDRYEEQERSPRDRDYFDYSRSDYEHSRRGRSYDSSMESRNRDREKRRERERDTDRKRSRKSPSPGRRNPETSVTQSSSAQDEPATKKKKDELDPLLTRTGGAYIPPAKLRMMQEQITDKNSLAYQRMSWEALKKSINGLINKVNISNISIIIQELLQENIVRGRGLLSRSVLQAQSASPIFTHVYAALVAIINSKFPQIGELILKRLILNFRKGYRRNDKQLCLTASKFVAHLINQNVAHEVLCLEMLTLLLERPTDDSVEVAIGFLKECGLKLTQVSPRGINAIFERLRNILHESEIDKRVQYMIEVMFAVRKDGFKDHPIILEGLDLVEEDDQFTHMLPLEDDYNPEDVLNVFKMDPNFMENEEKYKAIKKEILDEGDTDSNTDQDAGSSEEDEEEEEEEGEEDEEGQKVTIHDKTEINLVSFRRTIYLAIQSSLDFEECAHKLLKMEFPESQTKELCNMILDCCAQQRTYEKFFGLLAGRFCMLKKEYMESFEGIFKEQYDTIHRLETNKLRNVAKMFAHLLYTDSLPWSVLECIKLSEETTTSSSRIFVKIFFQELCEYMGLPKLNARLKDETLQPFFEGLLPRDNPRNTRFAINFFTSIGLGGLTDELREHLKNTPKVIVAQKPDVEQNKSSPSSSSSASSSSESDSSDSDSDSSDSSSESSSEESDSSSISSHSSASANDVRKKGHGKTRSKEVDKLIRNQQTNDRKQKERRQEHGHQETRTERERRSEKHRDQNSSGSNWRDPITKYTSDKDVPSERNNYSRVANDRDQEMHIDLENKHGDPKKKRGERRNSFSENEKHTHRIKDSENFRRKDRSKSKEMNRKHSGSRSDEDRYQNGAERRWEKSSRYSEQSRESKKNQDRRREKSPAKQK
UniProt Q9BZM5, whole entry: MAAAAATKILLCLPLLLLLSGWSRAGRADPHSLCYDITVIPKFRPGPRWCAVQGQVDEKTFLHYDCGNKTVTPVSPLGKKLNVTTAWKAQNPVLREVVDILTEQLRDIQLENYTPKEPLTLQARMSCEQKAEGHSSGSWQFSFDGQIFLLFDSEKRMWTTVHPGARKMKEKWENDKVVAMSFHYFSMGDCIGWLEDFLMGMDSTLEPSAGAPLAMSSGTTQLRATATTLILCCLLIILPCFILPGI
UniProt Q9NS93: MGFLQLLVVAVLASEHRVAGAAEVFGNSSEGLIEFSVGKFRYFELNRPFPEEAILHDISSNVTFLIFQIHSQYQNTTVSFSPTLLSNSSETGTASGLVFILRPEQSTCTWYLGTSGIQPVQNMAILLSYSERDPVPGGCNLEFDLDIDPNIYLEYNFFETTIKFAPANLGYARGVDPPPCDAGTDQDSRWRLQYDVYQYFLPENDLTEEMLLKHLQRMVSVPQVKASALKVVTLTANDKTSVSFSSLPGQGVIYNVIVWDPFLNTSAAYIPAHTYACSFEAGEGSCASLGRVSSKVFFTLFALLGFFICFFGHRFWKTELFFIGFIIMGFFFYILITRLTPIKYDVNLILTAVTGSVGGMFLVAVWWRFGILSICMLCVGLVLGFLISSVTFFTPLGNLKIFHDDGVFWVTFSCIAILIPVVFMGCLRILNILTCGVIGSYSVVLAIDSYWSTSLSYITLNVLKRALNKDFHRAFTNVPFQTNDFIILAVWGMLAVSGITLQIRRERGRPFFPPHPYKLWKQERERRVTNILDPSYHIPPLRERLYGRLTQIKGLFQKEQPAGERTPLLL
UniProt Q9NS86: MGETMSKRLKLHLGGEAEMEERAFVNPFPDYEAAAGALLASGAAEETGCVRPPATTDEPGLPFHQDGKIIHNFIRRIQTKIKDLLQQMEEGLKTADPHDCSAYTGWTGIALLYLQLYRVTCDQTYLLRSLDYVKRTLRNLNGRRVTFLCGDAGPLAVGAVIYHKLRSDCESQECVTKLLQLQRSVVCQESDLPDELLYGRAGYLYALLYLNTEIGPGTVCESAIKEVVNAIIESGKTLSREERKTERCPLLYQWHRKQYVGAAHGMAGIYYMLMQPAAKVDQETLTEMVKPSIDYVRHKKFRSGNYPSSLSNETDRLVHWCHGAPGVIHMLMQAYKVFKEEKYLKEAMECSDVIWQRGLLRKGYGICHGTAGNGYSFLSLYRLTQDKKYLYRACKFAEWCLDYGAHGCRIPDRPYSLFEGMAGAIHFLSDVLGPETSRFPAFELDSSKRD
UniProt Q9HC07: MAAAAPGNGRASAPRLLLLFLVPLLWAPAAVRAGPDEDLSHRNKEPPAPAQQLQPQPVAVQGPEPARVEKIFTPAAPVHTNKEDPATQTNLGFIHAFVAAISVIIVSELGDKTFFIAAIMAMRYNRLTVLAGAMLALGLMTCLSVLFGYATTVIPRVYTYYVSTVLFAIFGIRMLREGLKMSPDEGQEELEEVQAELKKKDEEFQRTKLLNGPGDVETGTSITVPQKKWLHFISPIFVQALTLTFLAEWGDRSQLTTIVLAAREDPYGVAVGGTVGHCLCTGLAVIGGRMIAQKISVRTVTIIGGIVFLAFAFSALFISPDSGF
UniProt Q9HC52: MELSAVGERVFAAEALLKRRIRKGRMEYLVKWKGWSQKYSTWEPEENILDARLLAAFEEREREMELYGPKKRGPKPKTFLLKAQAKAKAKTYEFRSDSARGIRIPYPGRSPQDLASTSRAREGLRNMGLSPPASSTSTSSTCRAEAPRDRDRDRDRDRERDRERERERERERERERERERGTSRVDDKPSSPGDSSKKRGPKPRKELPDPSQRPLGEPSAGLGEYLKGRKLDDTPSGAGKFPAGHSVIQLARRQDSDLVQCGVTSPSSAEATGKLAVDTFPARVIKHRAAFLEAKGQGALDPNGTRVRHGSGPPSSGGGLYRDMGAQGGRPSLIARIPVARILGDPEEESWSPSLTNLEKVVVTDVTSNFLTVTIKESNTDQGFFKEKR
UniProt Q9HDC5: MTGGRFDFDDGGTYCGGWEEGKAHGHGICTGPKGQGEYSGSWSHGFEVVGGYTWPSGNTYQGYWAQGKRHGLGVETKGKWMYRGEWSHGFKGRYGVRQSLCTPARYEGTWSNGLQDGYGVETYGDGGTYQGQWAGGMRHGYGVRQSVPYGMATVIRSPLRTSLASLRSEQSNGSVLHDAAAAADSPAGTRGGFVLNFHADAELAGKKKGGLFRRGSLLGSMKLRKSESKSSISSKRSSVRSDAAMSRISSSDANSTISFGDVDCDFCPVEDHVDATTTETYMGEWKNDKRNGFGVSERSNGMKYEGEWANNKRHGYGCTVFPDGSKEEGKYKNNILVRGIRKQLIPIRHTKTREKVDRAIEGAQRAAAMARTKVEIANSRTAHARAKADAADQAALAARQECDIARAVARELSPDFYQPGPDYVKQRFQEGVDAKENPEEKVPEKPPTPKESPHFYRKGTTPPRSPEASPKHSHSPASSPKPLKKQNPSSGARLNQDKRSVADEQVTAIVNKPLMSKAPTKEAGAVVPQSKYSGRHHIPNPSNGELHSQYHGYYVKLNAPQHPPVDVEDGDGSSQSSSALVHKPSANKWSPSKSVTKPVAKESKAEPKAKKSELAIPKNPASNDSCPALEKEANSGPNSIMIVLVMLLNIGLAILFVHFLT
UniProt Q9H061: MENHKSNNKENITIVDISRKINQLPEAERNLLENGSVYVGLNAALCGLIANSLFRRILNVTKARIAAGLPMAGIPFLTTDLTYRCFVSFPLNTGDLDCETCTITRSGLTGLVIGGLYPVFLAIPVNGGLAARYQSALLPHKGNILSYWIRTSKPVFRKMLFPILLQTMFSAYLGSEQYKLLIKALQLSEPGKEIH
UniProt Q9H5Q4: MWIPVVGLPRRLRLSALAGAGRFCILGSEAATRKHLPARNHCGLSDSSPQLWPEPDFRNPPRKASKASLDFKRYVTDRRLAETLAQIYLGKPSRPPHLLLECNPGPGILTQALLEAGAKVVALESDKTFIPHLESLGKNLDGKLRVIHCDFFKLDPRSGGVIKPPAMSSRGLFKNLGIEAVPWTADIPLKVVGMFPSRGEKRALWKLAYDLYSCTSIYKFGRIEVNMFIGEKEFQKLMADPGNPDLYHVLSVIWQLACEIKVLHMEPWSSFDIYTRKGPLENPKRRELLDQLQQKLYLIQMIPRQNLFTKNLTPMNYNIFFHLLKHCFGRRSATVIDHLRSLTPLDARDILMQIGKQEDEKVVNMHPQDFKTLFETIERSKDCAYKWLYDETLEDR
UniProt Q9NS69: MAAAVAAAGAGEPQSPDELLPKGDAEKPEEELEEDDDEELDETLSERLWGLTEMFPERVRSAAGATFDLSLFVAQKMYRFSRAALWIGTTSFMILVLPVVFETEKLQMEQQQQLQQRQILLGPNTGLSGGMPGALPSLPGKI

These results are taken from the supplement of paper PMC6411743.

Compound in the assay: Nc1nc2c(ncn2[C@@H]2O[C@H](COP(=O)(O)OP(=O)(O)OP(=O)(O)O)[C@@H](O)[C@H]2O)c(=O)[nH]1 [guanosine triphosphate]
Put plainly: NP40-soluble protein abundance relative to vehicle (solubility fold change) (ratio); higher = more soluble protein in presence of GTP. Put shortly:
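Across three independent experiments, values are fold changes against the detergent-processed vehicle for each replicate, based on vsn-normalised intensities. The samples were Jurkat crude lysate treated with eight concentrations (0.1 to 10 mM) for 10 min at room temperature and then 3 min at 37 °C. Lysate was solubilised with 0.8% NP40 and benzonase, ultracentrifuged, and the supernatant analysed by TMT-labelled LC-MS/MS.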

On to ANAPC1 (UniProt Q9H1A4), for which the NP40-soluble protein abundance reads like this: (concentration: 0.1mM) 1.13 ± 0.17; (concentration: 0.5mM) 1.24 ± 0.23; (concentration: 1mM) 1.15 ± 0.23; (concentration: 2mM) 1.23 ± 0.29; (concentration: 4mM) 1.21 ± 0.26; (concentration: 6mM) 1.24 ± 0.29. The NP40-soluble protein abundance reads like this: (concentration: 8mM) 1.19 ± 0.26; (concentration: 10mM) 1.14 ± 0.31.

Turning to CWC22 (UniProt Q9HCG8), the NP40-soluble protein abundance reads like this: (concentration: 0.1mM) 0.965 ± 0.065; (concentration: 0.5mM) 0.981 ± 0.071; (concentration: 1mM) 1.01 ± 0.041; (concentration: 2mM) 0.936 ± 0.088; (concentration: 4mM) 0.911 ± 0.078; (concentration: 6mM) 0.908 ± 0.092. Besides, the NP40-soluble protein abundance runs as follows: (concentration: 8mM) 0.964 ± 0.1; (concentration: 10mM) 0.978 ± 0.12.

As for UniProt Q9H9G7 and related entries, the NP40-soluble protein abundance (concentration: 0.1mM) was found to be 0.935 ± 0.067; the NP40-soluble protein abundance (concentration: 0.5mM) was found to be 1.01 ± 0.015; the NP40-soluble protein abundance (concentration: 1mM) was determined as 1.08 ± 0.2; the NP40-soluble protein abundance (concentration: 2mM) was 0.957 ± 0.08; the NP40-soluble protein abundance (concentration: 4mM) is 1.02 ± 0.061; the NP40-soluble protein abundance (concentration: 6mM) worked out at 1.06 ± 0.095. The NP40-soluble protein abundance was determined as 1.06 ± 0.084 (concentration: 8mM) and 1.062 ± 0.0073 (concentration: 10mM).

On to ULBP2 (UniProt Q9BZM5), for which the NP40-soluble protein abundance (concentration: 0.1mM) came out at 0.893 ± 0.085; the NP40-soluble protein abundance (concentration: 0.5mM) came out at 0.86 ± 0.1; the NP40-soluble protein abundance (concentration: 1mM) stood at 0.918 ± 0.073; the NP40-soluble protein abundance (concentration: 2mM) came out at 0.884 ± 0.1; the NP40-soluble protein abundance (concentration: 4mM) was 0.907 ± 0.098; the NP40-soluble protein abundance (concentration: 6mM) was 0.89 ± 0.043. In addition, the NP40-soluble protein abundance by setting is: (concentration: 8mM) 0.916 ± 0.1; (concentration: 10mM) 0.925 ± 0.088.

For the target UniProt Q9H3H3-2|Q9H3H3-3|Q9H3H3, the NP40-soluble protein abundance reads like this: (concentration: 0.1mM) 1.05 ± 0.055; (concentration: 0.5mM) 0.938 ± 0.03; (concentration: 1mM) 0.938 ± 0.08; (concentration: 2mM) 0.977 ± 0.044; (concentration: 4mM) 0.959 ± 0.063; (concentration: 6mM) 0.934 ± 0.057. Further, the NP40-soluble protein abundance (concentration: 8mM) was 0.946 ± 0.035 and the NP40-soluble protein abundance (concentration: 10mM) was found to be 0.923 ± 0.038.

TM7SF3 (UniProt Q9NS93): the NP40-soluble protein abundance runs as follows: (concentration: 0.1mM) 1.01 ± 0.14; (concentration: 0.5mM) 1.03 ± 0.041; (concentration: 1mM) 1.07 ± 0.11; (concentration: 2mM) 1.05 ± 0.14; (concentration: 4mM) 1 ± 0.073; (concentration: 6mM) 0.986 ± 0.015. Moreover, the NP40-soluble protein abundance worked out at 1.01 ± 0.08 (concentration: 8mM) and 1.01 ± 0.084 (concentration: 10mM).

As to LANCL2 (UniProt Q9NS86), the NP40-soluble protein abundance turned out to be 1.03 ± 0.057 (concentration: 0.1mM); 1.04 ± 0.047 (concentration: 0.5mM); 0.952 ± 0.02 (concentration: 1mM); 0.957 ± 0.032 (concentration: 2mM); 0.898 ± 0.042 (concentration: 4mM); 0.92 ± 0.019 (concentration: 6mM). Besides, the NP40-soluble protein abundance is, setting by setting: (concentration: 8mM) 0.881 ± 0.034; (concentration: 10mM) 0.886 ± 0.046.

Regarding RTN4 (UniProt Q9NQC3), the NP40-soluble protein abundance was 0.931 ± 0.032 (concentration: 0.1mM); 0.916 ± 0.056 (concentration: 0.5mM); 0.949 ± 0.069 (concentration: 1mM); 0.942 ± 0.076 (concentration: 2mM); 0.951 ± 0.072 (concentration: 4mM); 0.946 ± 0.071 (concentration: 6mM). Besides, the NP40-soluble protein abundance (concentration: 8mM) came out at 0.909 ± 0.09 and the NP40-soluble protein abundance (concentration: 10mM) came to 0.948 ± 0.062.

Take TMEM165 (UniProt Q9HC07): the NP40-soluble protein abundance (concentration: 0.1mM) was 0.979 ± 0.078; the NP40-soluble protein abundance (concentration: 0.5mM) came out at 0.948 ± 0.081; the NP40-soluble protein abundance (concentration: 1mM) was determined as 0.989 ± 0.12; the NP40-soluble protein abundance (concentration: 2mM) stood at 0.991 ± 0.11; the NP40-soluble protein abundance (concentration: 4mM) is 1 ± 0.16; the NP40-soluble protein abundance (concentration: 6mM) was 0.952 ± 0.1. Also, the NP40-soluble protein abundance is, setting by setting: (concentration: 8mM) 0.959 ± 0.15; (concentration: 10mM) 0.981 ± 0.13.

For the target CBX8 (UniProt Q9HC52), the NP40-soluble protein abundance (concentration: 0.1mM) came to 1.01 ± 0.04; the NP40-soluble protein abundance (concentration: 0.5mM) worked out at 1.04 ± 0.048; the NP40-soluble protein abundance (concentration: 1mM) is 1.13 ± 0.013; the NP40-soluble protein abundance (concentration: 2mM) was determined as 1.24 ± 0.14; the NP40-soluble protein abundance (concentration: 4mM) is 1.42 ± 0.15; the NP40-soluble protein abundance (concentration: 6mM) stood at 1.61 ± 0.15. The NP40-soluble protein abundance is 1.74 ± 0.17 (concentration: 8mM) and 1.86 ± 0.23 (concentration: 10mM).

Regarding JPH1 (UniProt Q9HDC5), the NP40-soluble protein abundance runs as follows: (concentration: 0.1mM) 1.15 ± 0.072; (concentration: 0.5mM) 1.08 ± 0.18; (concentration: 1mM) 1.09 ± 0.25; (concentration: 2mM) 1.13 ± 0.23; (concentration: 4mM) 1.18 ± 0.18; (concentration: 6mM) 1.13 ± 0.2. In addition, the NP40-soluble protein abundance is 1.18 ± 0.16 (concentration: 8mM) and 1.15 ± 0.32 (concentration: 10mM).

Consider TMEM126A (UniProt Q9H061), for which the NP40-soluble protein abundance (concentration: 0.1mM) was determined as 1.06 ± 0.1; the NP40-soluble protein abundance (concentration: 0.5mM) came to 1.01 ± 0.11; the NP40-soluble protein abundance (concentration: 1mM) is 0.978 ± 0.088; the NP40-soluble protein abundance (concentration: 2mM) was determined as 1.04 ± 0.11; the NP40-soluble protein abundance (concentration: 4mM) stood at 0.941 ± 0.03; the NP40-soluble protein abundance (concentration: 6mM) was found to be 0.943 ± 0.1. The NP40-soluble protein abundance worked out at 0.897 ± 0.016 (concentration: 8mM) and 0.907 ± 0.041 (concentration: 10mM).

TFB2M (UniProt Q9H5Q4): the NP40-soluble protein abundance is, setting by setting: (concentration: 0.1mM) 1.01 ± 0.021; (concentration: 0.5mM) 1.01 ± 0.032; (concentration: 1mM) 0.983 ± 0.014; (concentration: 2mM) 0.979 ± 0.044; (concentration: 4mM) 1.01 ± 0.019; (concentration: 6mM) 0.945 ± 0.029. Further, the NP40-soluble protein abundance is 0.961 ± 0.023 (concentration: 8mM) and 0.943 ± 0.061 (concentration: 10mM).

Turning to TOMM22 (UniProt Q9NS69), the NP40-soluble protein abundance is, setting by setting: (concentration: 0.1mM) 0.989 ± 0.16; (concentration: 0.5mM) 0.925 ± 0.072; (concentration: 1mM) 1.04 ± 0.1; (concentration: 2mM) 1.08 ± 0.11; (concentration: 4mM) 1.01 ± 0.16; (concentration: 6mM) 0.986 ± 0.031. Moreover, the NP40-soluble protein abundance (concentration: 8mM) came out at 0.937 ± 0.05 and the NP40-soluble protein abundance (concentration: 10mM) is 1.06 ± 0.12.

CHD8 (UniProt Q9HCK8): the NP40-soluble protein abundance reads like this: (concentration: 0.1mM) 0.995 ± 0.041; (concentration: 0.5mM) 1.03 ± 0.019; (concentration: 1mM) 1.02 ± 0.022; (concentration: 2mM) 1.03 ± 0.025; (concentration: 4mM) 1 ± 0.025; (concentration: 6mM) 1.02 ± 0.011. Also, the NP40-soluble protein abundance (concentration: 8mM) was 1.045 ± 0.01 and the NP40-soluble protein abundance (concentration: 10mM) was found to be 1.027 ± 0.0028.
